Data on one molecule can be found in article doi:10.1101/2021.10.29.466387 (bioRxiv, 2021).

Chains of the proteins cited; added tags and fusions are not shown. Residues count along the entry.
UniProt P77774, residues 20-392: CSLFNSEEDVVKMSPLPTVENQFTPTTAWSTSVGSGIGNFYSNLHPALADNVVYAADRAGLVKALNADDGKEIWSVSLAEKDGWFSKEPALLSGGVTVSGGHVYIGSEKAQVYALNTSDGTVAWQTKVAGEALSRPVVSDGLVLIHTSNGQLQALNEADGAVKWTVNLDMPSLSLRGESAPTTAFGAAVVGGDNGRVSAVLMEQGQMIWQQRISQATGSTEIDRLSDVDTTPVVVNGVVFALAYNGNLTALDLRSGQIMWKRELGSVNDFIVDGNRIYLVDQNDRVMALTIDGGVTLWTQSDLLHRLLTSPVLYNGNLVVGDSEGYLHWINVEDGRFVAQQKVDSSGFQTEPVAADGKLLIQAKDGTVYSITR
UniProt P0AC02, residues 20-245: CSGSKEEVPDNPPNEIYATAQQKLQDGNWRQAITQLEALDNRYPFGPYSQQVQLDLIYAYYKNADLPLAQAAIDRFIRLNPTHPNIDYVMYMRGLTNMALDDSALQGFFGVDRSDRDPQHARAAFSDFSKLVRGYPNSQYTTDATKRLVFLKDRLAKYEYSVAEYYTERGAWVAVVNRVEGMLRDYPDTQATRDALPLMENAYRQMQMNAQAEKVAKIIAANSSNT

No constants are given. Whether binding was seen depends on the method and setting. Binding seen in cells or lysates may run through a third protein. Some results given as binding are weak or reduced against the parent protein; the word gives no strength.

The target in one test is BamB (E. coli) (UniProt P77774). The experiment in a line: pull-down.
The target in a further test is BamD (E. coli) (UniProt P0AC02). Nature of the test: pull-down.

B1: ^35S-labelled OmpC (natural protein)
chain: MKVKVLSLLVPALLVAGAANAAEVYNKDGNKLDLYGKVDGLHYFSDNKDVDGDQTYMRLGFKGETQVTDQLTGYGQWEYQIQGNSAENENNSWTRVAFAGLKFQDVGSFDYGRNYGVVYDVTSWTDVLPEFGGDTYGSDNFMQQRGNGFATYRNTDFFGLVDGLNFAVQYQGKNGNPSGEGFTSGVTNNGRDALRQNGDGVGGSITYDYEGFGIGGAISSSKRTDAQNTAAYIGNGDRAETYTGGLKYDANNIYLAAQYTQTYNATRVGSLGWANKAQNFEAVAQYQFDFGLRPSLAYLQSKGKNLGRGYDDEDILKYVDVGATYYFNKNMSTYVDYKINLLDDNQFTRDAGINTDNIVALGLVYQF
modifications: ^35S-methionine label
Regarding B1, the results for the binding entry in the test with BamB (E. coli) and in the test with BamD (E. coli) were “no binding” and “binds”, respectively.
